# In the supplement of paper PMC10849652:
# By UniProt entry, the sequences of proteins in these tests, tags left out. Where a name states a change or a piece, a line headed by the entry shows the natural chain unless it says otherwise.
# UniProt P13861, whole entry, looked up: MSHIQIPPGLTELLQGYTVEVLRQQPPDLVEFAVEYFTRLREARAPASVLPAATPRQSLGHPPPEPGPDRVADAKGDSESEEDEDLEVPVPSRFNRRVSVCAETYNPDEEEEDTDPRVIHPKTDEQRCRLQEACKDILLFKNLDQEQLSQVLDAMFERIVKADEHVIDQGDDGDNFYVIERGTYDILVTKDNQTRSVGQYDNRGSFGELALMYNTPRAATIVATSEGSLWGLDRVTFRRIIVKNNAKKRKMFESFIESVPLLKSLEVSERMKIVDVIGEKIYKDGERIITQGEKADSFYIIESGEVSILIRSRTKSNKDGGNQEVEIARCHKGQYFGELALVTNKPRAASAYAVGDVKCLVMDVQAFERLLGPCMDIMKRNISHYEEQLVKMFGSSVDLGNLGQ
# UniProt O60927: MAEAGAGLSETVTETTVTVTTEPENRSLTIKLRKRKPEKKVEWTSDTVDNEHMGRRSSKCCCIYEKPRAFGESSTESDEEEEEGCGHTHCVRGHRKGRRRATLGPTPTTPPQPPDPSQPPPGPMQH
# UniProt P60891: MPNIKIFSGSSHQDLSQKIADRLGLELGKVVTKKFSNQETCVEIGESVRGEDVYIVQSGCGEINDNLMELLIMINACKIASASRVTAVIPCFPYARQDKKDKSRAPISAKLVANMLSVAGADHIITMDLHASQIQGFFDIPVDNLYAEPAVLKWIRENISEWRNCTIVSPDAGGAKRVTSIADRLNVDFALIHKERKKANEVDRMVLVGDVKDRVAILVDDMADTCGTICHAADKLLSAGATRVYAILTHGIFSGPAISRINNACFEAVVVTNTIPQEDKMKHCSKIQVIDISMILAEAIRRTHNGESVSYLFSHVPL
# UniProt P49643: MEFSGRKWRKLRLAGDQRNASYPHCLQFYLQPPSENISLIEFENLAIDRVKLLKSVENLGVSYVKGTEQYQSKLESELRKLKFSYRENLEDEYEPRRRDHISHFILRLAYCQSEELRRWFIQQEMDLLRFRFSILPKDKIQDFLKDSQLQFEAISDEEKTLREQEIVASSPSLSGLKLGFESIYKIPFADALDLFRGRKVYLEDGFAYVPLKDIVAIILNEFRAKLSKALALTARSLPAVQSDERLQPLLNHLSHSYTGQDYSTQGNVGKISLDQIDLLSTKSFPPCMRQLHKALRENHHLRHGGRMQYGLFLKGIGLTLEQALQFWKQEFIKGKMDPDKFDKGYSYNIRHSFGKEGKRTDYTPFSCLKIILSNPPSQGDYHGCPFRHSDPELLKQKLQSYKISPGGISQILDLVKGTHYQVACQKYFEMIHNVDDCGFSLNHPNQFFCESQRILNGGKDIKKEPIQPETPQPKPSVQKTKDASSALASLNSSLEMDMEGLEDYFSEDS
# UniProt P30044: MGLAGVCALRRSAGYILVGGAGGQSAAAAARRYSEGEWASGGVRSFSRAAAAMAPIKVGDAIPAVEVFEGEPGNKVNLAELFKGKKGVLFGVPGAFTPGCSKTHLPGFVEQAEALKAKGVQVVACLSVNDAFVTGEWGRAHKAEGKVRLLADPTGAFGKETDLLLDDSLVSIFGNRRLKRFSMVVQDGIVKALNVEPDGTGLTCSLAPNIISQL
# UniProt Q04759: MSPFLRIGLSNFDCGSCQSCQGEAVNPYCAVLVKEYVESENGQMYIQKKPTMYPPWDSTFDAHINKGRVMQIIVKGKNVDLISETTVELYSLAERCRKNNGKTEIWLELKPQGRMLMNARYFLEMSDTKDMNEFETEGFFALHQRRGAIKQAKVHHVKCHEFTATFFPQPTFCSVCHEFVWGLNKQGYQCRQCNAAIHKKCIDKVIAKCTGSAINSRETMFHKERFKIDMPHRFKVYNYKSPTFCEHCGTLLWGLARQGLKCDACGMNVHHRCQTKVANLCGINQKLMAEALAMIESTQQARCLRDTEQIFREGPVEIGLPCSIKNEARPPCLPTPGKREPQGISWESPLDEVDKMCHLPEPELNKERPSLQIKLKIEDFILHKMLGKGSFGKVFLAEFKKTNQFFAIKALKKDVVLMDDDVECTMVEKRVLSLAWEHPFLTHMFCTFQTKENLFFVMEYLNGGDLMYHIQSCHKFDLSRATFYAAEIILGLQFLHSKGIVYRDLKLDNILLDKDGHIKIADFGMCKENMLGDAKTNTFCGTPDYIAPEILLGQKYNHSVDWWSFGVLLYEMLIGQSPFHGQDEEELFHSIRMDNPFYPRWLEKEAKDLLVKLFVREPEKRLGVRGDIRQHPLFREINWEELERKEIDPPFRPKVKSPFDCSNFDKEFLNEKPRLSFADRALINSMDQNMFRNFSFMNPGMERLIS
# UniProt Q9UMS4: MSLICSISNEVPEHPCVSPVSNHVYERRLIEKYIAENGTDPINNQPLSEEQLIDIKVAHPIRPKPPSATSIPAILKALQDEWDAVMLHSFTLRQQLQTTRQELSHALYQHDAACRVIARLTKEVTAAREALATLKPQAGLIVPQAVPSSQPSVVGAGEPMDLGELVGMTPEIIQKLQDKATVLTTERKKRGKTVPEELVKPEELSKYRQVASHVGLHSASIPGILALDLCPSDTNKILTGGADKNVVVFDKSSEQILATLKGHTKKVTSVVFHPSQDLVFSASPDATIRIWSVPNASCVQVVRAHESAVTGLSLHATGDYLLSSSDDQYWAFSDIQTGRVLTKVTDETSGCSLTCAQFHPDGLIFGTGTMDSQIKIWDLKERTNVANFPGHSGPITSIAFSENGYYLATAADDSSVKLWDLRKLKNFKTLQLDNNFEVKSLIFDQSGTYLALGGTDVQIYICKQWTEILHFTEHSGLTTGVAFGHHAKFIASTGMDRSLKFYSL
# UniProt Q9UMR5: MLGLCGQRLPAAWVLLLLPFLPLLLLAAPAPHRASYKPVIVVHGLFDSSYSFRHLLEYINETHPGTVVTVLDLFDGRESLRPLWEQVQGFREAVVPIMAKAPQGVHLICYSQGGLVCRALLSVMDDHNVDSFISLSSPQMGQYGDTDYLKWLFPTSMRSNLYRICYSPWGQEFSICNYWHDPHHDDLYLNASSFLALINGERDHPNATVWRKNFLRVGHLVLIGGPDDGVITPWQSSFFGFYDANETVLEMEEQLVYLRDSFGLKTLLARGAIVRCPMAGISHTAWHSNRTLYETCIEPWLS
# UniProt Q9Y6M0: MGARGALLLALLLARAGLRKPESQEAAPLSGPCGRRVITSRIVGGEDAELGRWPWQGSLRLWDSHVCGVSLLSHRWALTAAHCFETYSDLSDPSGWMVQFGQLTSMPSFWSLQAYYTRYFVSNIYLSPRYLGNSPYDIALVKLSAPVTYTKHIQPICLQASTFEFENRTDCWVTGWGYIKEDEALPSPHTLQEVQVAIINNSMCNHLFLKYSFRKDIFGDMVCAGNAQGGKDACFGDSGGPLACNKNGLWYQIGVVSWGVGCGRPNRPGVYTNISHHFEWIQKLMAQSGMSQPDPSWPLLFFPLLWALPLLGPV
# UniProt Q14558: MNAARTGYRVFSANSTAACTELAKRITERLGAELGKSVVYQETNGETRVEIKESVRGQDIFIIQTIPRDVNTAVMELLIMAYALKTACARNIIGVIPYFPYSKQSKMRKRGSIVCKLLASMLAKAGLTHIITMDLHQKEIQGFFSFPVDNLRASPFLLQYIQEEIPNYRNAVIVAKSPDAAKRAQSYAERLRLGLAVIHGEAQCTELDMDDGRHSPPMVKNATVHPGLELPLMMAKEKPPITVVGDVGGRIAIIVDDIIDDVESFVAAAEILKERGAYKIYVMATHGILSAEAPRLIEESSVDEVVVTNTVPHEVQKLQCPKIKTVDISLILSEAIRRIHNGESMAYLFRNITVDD
# UniProt P14314: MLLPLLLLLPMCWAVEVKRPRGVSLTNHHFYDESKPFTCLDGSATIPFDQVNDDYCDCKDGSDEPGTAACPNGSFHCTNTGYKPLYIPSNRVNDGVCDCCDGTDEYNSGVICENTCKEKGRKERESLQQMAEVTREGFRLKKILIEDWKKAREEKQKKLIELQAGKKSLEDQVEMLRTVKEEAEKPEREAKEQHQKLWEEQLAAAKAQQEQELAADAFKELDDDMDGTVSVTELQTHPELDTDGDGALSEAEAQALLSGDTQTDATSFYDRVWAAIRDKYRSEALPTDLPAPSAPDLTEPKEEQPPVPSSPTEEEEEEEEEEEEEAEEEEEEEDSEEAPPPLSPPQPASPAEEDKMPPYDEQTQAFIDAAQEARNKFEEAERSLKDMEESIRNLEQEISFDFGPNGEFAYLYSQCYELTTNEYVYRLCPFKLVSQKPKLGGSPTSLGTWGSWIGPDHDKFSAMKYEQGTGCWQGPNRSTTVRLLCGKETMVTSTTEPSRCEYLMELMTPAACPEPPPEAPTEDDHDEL
# UniProt Q5MIZ7: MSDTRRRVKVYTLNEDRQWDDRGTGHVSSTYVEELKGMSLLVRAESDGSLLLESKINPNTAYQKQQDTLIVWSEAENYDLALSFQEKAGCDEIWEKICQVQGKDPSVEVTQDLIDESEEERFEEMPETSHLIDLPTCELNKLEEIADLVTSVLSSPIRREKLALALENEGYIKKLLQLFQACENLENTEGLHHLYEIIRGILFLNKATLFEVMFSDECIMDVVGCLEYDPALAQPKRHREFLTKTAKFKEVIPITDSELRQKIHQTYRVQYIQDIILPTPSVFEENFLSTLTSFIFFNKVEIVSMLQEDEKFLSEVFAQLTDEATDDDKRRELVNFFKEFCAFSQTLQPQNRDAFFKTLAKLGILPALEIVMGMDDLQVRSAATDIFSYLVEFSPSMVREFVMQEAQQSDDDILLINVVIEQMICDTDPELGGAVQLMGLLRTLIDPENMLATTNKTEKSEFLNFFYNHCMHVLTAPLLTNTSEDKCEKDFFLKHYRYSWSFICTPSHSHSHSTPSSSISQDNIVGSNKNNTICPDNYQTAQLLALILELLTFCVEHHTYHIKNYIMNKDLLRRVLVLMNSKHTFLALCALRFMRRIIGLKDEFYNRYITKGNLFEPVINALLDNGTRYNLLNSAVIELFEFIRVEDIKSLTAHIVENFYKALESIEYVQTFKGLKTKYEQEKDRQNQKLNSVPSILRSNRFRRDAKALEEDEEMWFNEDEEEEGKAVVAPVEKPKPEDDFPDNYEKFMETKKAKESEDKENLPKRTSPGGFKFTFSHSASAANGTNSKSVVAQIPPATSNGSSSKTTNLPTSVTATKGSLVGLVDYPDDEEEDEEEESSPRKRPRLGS
# UniProt P50897: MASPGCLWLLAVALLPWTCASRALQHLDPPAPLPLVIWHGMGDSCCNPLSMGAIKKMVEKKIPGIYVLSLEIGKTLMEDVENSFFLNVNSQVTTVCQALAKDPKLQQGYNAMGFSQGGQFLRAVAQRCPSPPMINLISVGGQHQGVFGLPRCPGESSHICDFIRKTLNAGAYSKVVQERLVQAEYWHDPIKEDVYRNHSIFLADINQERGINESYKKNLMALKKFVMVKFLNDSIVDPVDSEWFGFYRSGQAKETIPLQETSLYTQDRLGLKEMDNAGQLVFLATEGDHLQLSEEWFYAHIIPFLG
# UniProt Q13362, whole entry, looked up: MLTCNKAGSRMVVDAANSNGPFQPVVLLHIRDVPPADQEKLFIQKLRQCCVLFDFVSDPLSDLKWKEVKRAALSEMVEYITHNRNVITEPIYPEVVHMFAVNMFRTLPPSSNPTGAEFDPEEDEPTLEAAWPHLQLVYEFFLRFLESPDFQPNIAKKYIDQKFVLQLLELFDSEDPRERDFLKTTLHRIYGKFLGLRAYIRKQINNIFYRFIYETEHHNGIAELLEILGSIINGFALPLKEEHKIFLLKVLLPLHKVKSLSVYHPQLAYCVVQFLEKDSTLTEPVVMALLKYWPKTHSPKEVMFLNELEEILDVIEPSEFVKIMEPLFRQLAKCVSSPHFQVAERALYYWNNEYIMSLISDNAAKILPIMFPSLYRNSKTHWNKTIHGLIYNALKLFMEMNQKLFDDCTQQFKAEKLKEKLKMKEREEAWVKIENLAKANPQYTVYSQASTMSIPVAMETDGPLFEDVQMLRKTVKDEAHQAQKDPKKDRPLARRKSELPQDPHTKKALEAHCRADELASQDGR
# UniProt Q9H875: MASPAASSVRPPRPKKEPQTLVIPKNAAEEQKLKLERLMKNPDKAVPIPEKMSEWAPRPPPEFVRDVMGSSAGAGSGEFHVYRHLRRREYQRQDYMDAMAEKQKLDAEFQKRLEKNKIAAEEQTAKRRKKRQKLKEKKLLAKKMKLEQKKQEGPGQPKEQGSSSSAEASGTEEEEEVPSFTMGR
# UniProt Q9Y478: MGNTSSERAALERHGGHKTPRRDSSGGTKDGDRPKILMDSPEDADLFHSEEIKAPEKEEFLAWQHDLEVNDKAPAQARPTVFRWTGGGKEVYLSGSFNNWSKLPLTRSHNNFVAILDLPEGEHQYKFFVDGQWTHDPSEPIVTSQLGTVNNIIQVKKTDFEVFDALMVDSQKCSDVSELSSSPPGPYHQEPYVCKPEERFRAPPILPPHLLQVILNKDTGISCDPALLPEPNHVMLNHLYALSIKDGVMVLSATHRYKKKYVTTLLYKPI
# This is one part of the list.
# How the values were obtained:
# Experiment in all cases: log2 fold change, soluble protein after heating vs DMSO (PISA); higher = thermal stabilisation; K562 cells, 10 uM, 30 min; active = over 0.2 and 3.5 SD of the protein, either way, in both replicates (recomputed)
# [1] = compound: COC1=CC=C(C=C1)CN2C=CC3=C2C=C(C=C3)C(=O)NO
# In short: (§1)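 Soluble protein was defined as the supernatant after 21,000xg for 90 min. It came from K562 cells at 2×10^6 cells/mL given 10 μM compound for 30 min, heated in aliquots for 3 min across 48°C-58°C, pooled, and extracted in PBS with 0.5% NP-40 at 4°C, and was quantified by TMTpro 16plex LC-MS/MS with equalised channel sums. Thermal stability against control samples, from duplicates, is reported as log2 fold change.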
# filanesib = compound: CON(C)C(=O)N1N=C(c2cc(F)ccc2F)S[C@@]1(CCCN)c1ccccc1 [filanesib]
# In short: as §1
# zotarolimus = compound: CO[C@H]1C[C@@H]2CC[C@@H](C)[C@@](O)(O2)C(=O)C(=O)N2CCCC[C@H]2C(=O)O[C@H]([C@H](C)C[C@@H]2CC[C@H](n3cnnn3)[C@H](OC)C2)CC(=O)[C@H](C)/C=C(\C)[C@@H](O)[C@@H](OC)C(=O)[C@H](C)C[C@H](C)/C=C/C=C/C=C/1C [zotarolimus]
# In short: as §1
# idasanutlin = compound: COc1cc(C(=O)O)ccc1NC(=O)[C@@H]1N[C@@H](CC(C)(C)C)[C@](C#N)(c2ccc(Cl)cc2F)[C@H]1c1cccc(Cl)c1F [idasanutlin]
# In short: as §1
# alisertib = compound: COc1cc(Nc2ncc3c(n2)-c2ccc(Cl)cc2C(c2c(F)cccc2OC)=NC3)ccc1C(=O)O [alisertib]
# In short: as §1
# [2] = compound: COc1cc2nc(-c3cc(F)ccc3O)nc(N[C@@H]3CNC[C@H]3C(C)(C)O)c2cc1OC
# In short: as §1
# gefitinib = compound: COc1cc2ncnc(Nc3ccc(F)c(Cl)c3)c2cc1OCCCN1CCOCC1 [gefitinib]
# In short: as §1
# [3] = compound: COc1cccc2cc(-c3nc([C@H]4CC[C@H](C(=O)O)CC4)n4ncnc(N)c34)[nH]c12
# In short: as §1
# lapatinib = compound: CS(=O)(=O)CCNCc1ccc(-c2ccc3ncnc(Nc4ccc(OCc5cccc(F)c5)c(Cl)c4)c3c2)o1 [lapatinib]
# In short: as §1
# pictilisib = compound: CS(=O)(=O)N1CCN(Cc2cc3nc(-c4cccc5[nH]ncc45)nc(N4CCOCC4)c3s2)CC1 [pictilisib]
# In short: as §1
Target,log2 fold change [1],log2 fold change (filanesib),log2 fold change (zotarolimus),log2 fold change (idasanutlin),log2 fold change (alisertib),log2 fold change [2],log2 fold change (gefitinib),log2 fold change [3],log2 fold change (lapatinib),log2 fold change (pictilisib)
PRKAR2A (UniProt P13861),inactive: -0.033,inactive: -0.021,inactive: 0.013,inactive: -0.009,inactive: -0.058,active: -0.493,inactive: 0.048,inactive: 0.006,inactive: 0.034,inactive: 0.057
PPP2R5E (UniProt Q16537),inactive: -0.044,inactive: -0.056,inactive: -0.009,inactive: -0.191,inactive: -0.024,inactive: 0.205,inactive: 0.002,inactive: 0.033,inactive: -0.024,inactive: -0.118
PPP1R11 (UniProt O60927),inactive: 0.015,inactive: 0.03,inactive: -0.021,inactive: 0.056,inactive: -0.026,inactive: 0.023,inactive: -0.012,inactive: 0.005,inactive: 0.007,inactive: 0.079
PRPS1 (UniProt P60891),inactive: -0.055,inactive: 0.044,inactive: -0.003,inactive: -0.016,inactive: -0.107,inactive: 0.102,inactive: -0.072,inactive: 0.05,inactive: -0.023,inactive: 0.176
PRIM2 (UniProt P49643),inactive: 0.044,inactive: -0.139,inactive: -0.132,inactive: 0.03,inactive: -0.042,inactive: 0.063,inactive: 0.069,inactive: -0.033,inactive: -0.005,inactive: 0.086
PRDX5 (UniProt P30044),inactive: 0,inactive: -0.006,inactive: -0.051,inactive: 0.023,inactive: -0.008,inactive: 0.007,inactive: 0.018,inactive: 0.044,inactive: -0.046,inactive: -0.01
PRPF8 (UniProt Q6P2Q9),inactive: -0.01,inactive: 0.198,inactive: -0.003,inactive: 0.075,inactive: -0.026,inactive: 0.081,inactive: -0.065,inactive: -0.049,inactive: 0.043,inactive: -0.04
PRKCQ (UniProt Q04759),inactive: -0.044,inactive: -0.027,inactive: 0.052,inactive: -0.003,inactive: -0.018,inactive: -0.206,inactive: 0.021,inactive: -0.008,inactive: 0.041,inactive: -0.053
PQBP1 (UniProt O60828),inactive: -0.032,inactive: 0.066,inactive: 0.008,inactive: -0.031,inactive: 0.005,inactive: -0.009,inactive: -0.02,inactive: 0.041,inactive: -0.051,inactive: 0.002
PPP1CC isoform 2 (UniProt P36873),inactive: 0.074,inactive: -0.038,inactive: 0.024,inactive: 0.014,inactive: -0.058,inactive: 0,inactive: 0.008,inactive: -0.022,inactive: 0.003,inactive: -0.01
PPP4C (UniProt P60510),inactive: -0.173,inactive: 0.019,inactive: 0.015,inactive: -0.037,inactive: -0.129,inactive: 0.013,inactive: -0.026,inactive: 0.093,inactive: -0.033,inactive: 0.011
PRPF19 (UniProt Q9UMS4),inactive: -0.013,inactive: -0.013,inactive: -0.014,inactive: -0.045,inactive: -0.043,inactive: 0.055,inactive: -0.001,inactive: 0.048,inactive: -0.012,inactive: -0.017
PRPF4B (UniProt Q13523),inactive: -0.024,inactive: 0.253,inactive: 0.187,inactive: 0.164,inactive: -0.047,inactive: -0.1,inactive: -0.023,inactive: 0.003,inactive: 0.19,inactive: 0.097
PRPH isoform 2 (UniProt P41219),inactive: -0.333,inactive: 0.32,inactive: 0.043,inactive: 0.188,inactive: -0.236,inactive: -0.285,inactive: 0.011,inactive: -0.325,inactive: 0.23,inactive: -0.102
PPME1 (UniProt Q9Y570),inactive: -0.04,inactive: 0.006,inactive: 0.009,inactive: -0.054,inactive: -0.019,inactive: -0.034,inactive: 0.024,inactive: 0.031,inactive: 0.009,inactive: 0.076
PPT2 isoform 3 (UniProt Q9UMR5),inactive: 0.052,inactive: 0.008,inactive: -0.019,inactive: -0.082,inactive: -0.114,inactive: -0.029,inactive: -0.004,inactive: 0.093,inactive: 0.035,inactive: 0.024
PRSS21 (UniProt Q9Y6M0),inactive: -0.117,inactive: 0.042,inactive: 0.043,inactive: 0.055,inactive: -0.071,inactive: 0.018,inactive: -0.016,inactive: -0.063,inactive: 0.052,inactive: 0.015
PRPSAP1 isoform 2 (UniProt Q14558),inactive: -0.029,inactive: 0.013,inactive: 0.015,inactive: 0.017,inactive: -0.107,inactive: -0.042,inactive: -0.037,inactive: 0.015,inactive: 0.057,inactive: -0.026
PPP1R18 (UniProt Q6NYC8),inactive: 0.039,inactive: 0.046,inactive: 0.04,inactive: 0,inactive: -0.039,inactive: 0.1,inactive: 0.087,inactive: 0.032,inactive: 0.002,inactive: -0.02
PRKCSH (UniProt P14314),inactive: 0.091,inactive: -0.272,inactive: 0.068,inactive: 0.037,inactive: -0.049,inactive: 0.009,inactive: 0.001,inactive: 0.028,inactive: -0.01,inactive: -0.064
PPP4R3B (UniProt Q5MIZ7),inactive: -0.01,inactive: -0.004,inactive: 0.014,inactive: -0.039,inactive: 0.048,inactive: 0,inactive: -0.034,inactive: -0.034,inactive: 0.047,inactive: 0.076
PPP5C (UniProt P53041),inactive: -0.027,inactive: 0.008,inactive: 0.018,inactive: -0.022,inactive: -0.052,inactive: 0.034,inactive: -0.021,inactive: 0.079,inactive: 0.001,inactive: 0.008
PRPF4 (UniProt O43172),inactive: 0.063,inactive: 0.013,inactive: 0.026,inactive: -0.038,inactive: -0.029,inactive: -0.067,inactive: 0.002,inactive: -0.027,inactive: 0.029,inactive: -0.004
PPT1 (UniProt P50897),inactive: 0.021,active: -0.241,inactive: -0.043,inactive: 0.005,inactive: -0.041,inactive: -0.041,inactive: -0.03,inactive: 0.074,inactive: -0.038,inactive: 0.052
PPP2R5C isoform 5 (UniProt Q13362),inactive: 0.022,inactive: -0.126,inactive: 0.031,inactive: -0.137,inactive: -0.11,inactive: 0.082,inactive: -0.018,inactive: -0.012,inactive: 0,inactive: 0.111
PRKRIP1 (UniProt Q9H875),inactive: -0.018,inactive: -0.011,inactive: -0.086,inactive: 0.004,inactive: -0.044,inactive: 0.058,inactive: 0,inactive: 0.031,inactive: 0.035,inactive: 0.035
PRKAB1 (UniProt Q9Y478),inactive: 0.024,inactive: -0.022,inactive: 0.07,inactive: -0.223,inactive: -0.105,inactive: -0.034,inactive: -0.024,inactive: 0.05,inactive: -0.049,inactive: -0.063
PPP4R1 (UniProt Q8TF05),inactive: 0.058,inactive: -0.049,inactive: 0.047,inactive: -0.037,inactive: -0.058,inactive: 0.04,inactive: 0.016,inactive: -0.017,inactive: -0.034,inactive: -0.009

# An excerpt from above, showing only log2 fold change (idasanutlin), log2 fold change (gefitinib) and log2 fold change (zotarolimus).
Target	log2 fold change (idasanutlin)	log2 fold change (gefitinib)	log2 fold change (zotarolimus)
PRPF4 (UniProt O43172)	inactive: -0.038	inactive: 0.002	inactive: 0.026
PRKRIP1 (UniProt Q9H875)	inactive: 0.004	inactive: 0	inactive: -0.086
